From patent publication US12216122B2, “Compositions and methods relating to detection, inhibition, and imaging of indoleamine 2,3-dioxygenase 1 (IDO1)” (Regeneron Pharmaceuticals, Inc., priority 2019, dated 2025)
Bridge positions count the residues as written; N and C are the ends. Square brackets hold non-standard residues; d marks the D form. Triazole bridges read from a SMILES are 1,4-linked. Peptide text beside a SMILES is read from it. * marks the point of attachment. Biotinyl(3aR,4R,6aS) = O=C1N[C@@H]2[C@@H](CS[C@@H]2CCCCC(=O)*)N1; dTrp(1-Me) = Cn1cc(C[C@@H](N)C(=O)O)c2ccccc21; Lys(N3) = [N-]=[N+]=NCCCC[C@H](N)C(=O)O; dPhe(4-F) = N[C@H](Cc1ccc(F)cc1)C(=O)O; AEEEA = NCCOCCOCCOCC(=O)O; Pra = C#CC[C@H](N)C(=O)O

The compounds below were run on 6×His-tagged IDO1 epitopes (assay: Point ELISA for orientation of macrocycle binding to synthetic IDO1 epitopes). Conditions: 2 μM epitope, biotin-PEG3-modified macrocycle immobilized.
Set-up: species or system human

| SMILES | Orientation of binding to scrambled epitope variants (maximum ELISA signal) |
| --- | --- |
| Cn1cc(C[C@H]2NC(=O)[C@@H](Cc3ccccc3)NC(=O)[C@@H](CCCNC(=N)N)NC(=O)[C@@H](Cc3ccccc3)NC(=O)[C@@H](NC(=O)COCCOCCOCCNC(=O)CCCC[C@H]3SC[C@H]4NC(=O)N[C@H]43)Cc3cn(nn3)CCCC[C@@H](C(N)=O)NC(=O)[C@@H](CO)NC2=O)c2ccccc21 [frf(Me-Trp)s, biotin-PEG3-Cy(frf(Me-Trp)s)] ({Biotinyl(3aR,4R,6aS)-AEEEA}-[Pra][dF][dR][dF][dTrp(1-Me)][dS][Lys(N3)]-NH2; triazole 1-7) | preferential binding to the N-terminal portion of IDO1 Epitope1 |
| CC(C)C[C@H]1NC(=O)[C@@H](CC(N)=O)NC(=O)[C@@H](NC(=O)COCCOCCOCCNC(=O)CCCC[C@H]2SC[C@H]3NC(=O)N[C@H]32)Cc2cn(nn2)CCCC[C@@H](C(N)=O)NC(=O)[C@@H](CCCNC(=N)N)NC(=O)[C@@H](Cc2cn(C)c3ccccc23)NC(=O)[C@@H](Cc2c[nH]c3ccccc23)NC1=O [nlw(Me-Trp)r, biotin-PEG3-Cy(nlw(Me-Trp)r)] ({Biotinyl(3aR,4R,6aS)-AEEEA}-[Pra][dN][dL][dW][dTrp(1-Me)][dR][Lys(N3)]-NH2; triazole 1-7) | preferential binding to the N-terminal portion of IDO1 Epitope2 |
| NC(=O)[C@@H]1CCCCn2cc(nn2)C[C@H](NC(=O)COCCOCCOCCNC(=O)CCCC[C@H]2SC[C@H]3NC(=O)N[C@H]32)C(=O)N[C@H](CO)C(=O)N2CCC[C@@H]2C(=O)N[C@H](Cc2c[nH]c3ccccc23)C(=O)N[C@H](Cc2c[nH]c3ccccc23)C(=O)N[C@H](Cc2ccc(F)cc2)C(=O)N1 [spww(F-Phe), biotin-PEG3-Cy(spww(F-Phe))] ({Biotinyl(3aR,4R,6aS)-AEEEA}-[Pra][dS][dP][dW][dW][dPhe(4-F)][Lys(N3)]-NH2; triazole 1-7) | preferential binding to the N-terminal portion of IDO1 Epitope2 |
